Whole data set: some 33,000 sequences, median “E-score (-0.5 to 0.5)” near -0.0034, cut for the highest 2% near 0.25. Some of the results follow.
Target: T1, Yap3 (UniProt P38749)
T1 sequence: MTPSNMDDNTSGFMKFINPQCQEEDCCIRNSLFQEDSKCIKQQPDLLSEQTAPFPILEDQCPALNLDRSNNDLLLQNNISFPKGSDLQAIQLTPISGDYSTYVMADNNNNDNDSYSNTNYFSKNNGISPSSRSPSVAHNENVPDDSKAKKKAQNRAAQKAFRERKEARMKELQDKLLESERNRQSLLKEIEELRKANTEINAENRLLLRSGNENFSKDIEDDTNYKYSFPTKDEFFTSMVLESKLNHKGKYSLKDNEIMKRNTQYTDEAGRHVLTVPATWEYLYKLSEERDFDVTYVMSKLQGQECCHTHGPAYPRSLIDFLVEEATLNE
Experiment: PBM E-score (8-mer binding enrichment) (E-score (-0.5 to 0.5)); higher = stronger / more preferred TF binding
Conditions: protein concentration: 100 nM; construct: GST-full length
Outline: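 Masliner-normalised scans of fluorescent anti-GST signal were the basis for scoring. That signal came from GST-tagged yeast transcription factors applied at about 100-200 nM to double-stranded universal all-10-mer Agilent arrays on fresh or once-stripped slides. Each ungapped eight-base word, pooled with its reverse complement, received an E-score from the Universal PBM Analysis Suite.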

Sequence | PBM E-score
CATATAGA | 0.0587
ATCTGGTG | 0.0119
AGCTGCTG | -0.158
ATGTTGTA | 0.231
ACTGAAAC | 0.27
CTTTCCCC | 0.0661
ACACAAAA | 0.165
CCGTCAGA | -0.265
CCGCCGGC | -0.16
GCGTAGAA | -0.00954
CACGACCC | -0.115
CGTCTATA | 0.104
ACAGTAGT | 0.0709
AACCTAGT | -0.0172
ATTTTTAC | 0.0674
ACTGTGTG | 0.0391
CCCCAGGA | -0.28
GCTGATAC | 0.0278
CCGTCGAC | -0.174
AATGACCG | 0.0168
CTCGCGCA | 0.03
ACACGCCT | -0.0337
AATGCGCG | 0.178
GTGGTAGA | -0.143
ATCTGCTA | -0.105

Look-ups from above:
PBM E-score with ACAGTAGT is entered as 0.0709
PBM E-score with ATCTGCTA is entered as -0.105
PBM E-score with ATCTGGTG is entered as 0.0119
PBM E-score with GTGGTAGA is entered as -0.143
PBM E-score with ATGTTGTA is entered as 0.231

Remaining list, next part:

Sequence | PBM E-score
ATACCCAA | 0.185
GTCCCCAA | -0.196
GCAGGTAA | 0.17
AATGGCAC | 0.0457
ACGTTGAC | -0.0255
CAAGGCGG | -0.219
AGAAGCTA | -0.181
ACCTTAAG | -0.00128
CCCCGAAA | -0.0453
AATCGTCG | 0.0821
ACGAAAGC | 0.045
ATGAACCG | 0.063
TAATCACA | 0.154
GGACTCAC | -0.198
CCACAGAC | -0.129
ACCGGTGG | -0.288
CGACCCCC | -0.399
GAGGTCAC | -0.177
GCACTTCC | -0.0999
TAGGCAAA | -0.00875
AAAGGCGG | -0.0373
ATTCCCAC | 0.0355
AATGAGGC | -0.149
GCAATCAC | -0.00269
ACCGATTA | 0.179

Sequence | PBM E-score
AATAGGTC | 0.0829
ACTCGCTA | 0.0963
AATACCTG | 0.06
CCTCCGAA | -0.202
GAACAGGC | -0.0897
CTGATTGA | 0.0155
AATAGCGA | 0.24
AAACCACT | 0.0898
GCCCGGAC | -0.272
ACAGAACC | -0.119
TGTATAAA | 0.211
AAACCCTC | -0.0466
AACGCTTG | -0.109
TATCAAGA | 0.172
ACCTGATC | -0.142
ACTCGGAG | -0.129
CAGGCGCG | -0.0848
CCGCTCCG | -0.107
AACGATGA | 0.0645
GTTTACGA | -0.0753
ACCCATAT | 0.143
CGAGAGCG | -0.202
CAGCAACC | -0.0263
TACTATAA | 0.266
ATGTACGC | 0.0394

Sequence | PBM E-score
ACGATATG | 0.0818
GCCCGCAC | 0.0318
ACATTTAA | 0.221
ACGAGAAC | 0.118
CTCTTAAC | 0.024
GCACGGTA | -0.18
CTGACTCC | -0.16
AAACTACA | 0.189
CATCGAAC | 0.0176
ACGGCAGA | 0.122
ACTGATCG | 0.00838
GCCTGGGA | -0.282
CGGGATAC | -0.013
ATAATGCG | 0.182
GGCTCCCC | -0.361
AACTTAGT | 0.0299
ATCATGTG | 0.0322
AGTTCCTA | 0.0691
ATACGAAC | 0.189
GAGGGGGA | -0.233
AGCACCCA | -0.217
CTCCCAGA | -0.157
ACAGAAGC | 0.154
GCCATGGC | -0.191
GAGAAGTA | 0.0274

Sequence | PBM E-score
CGGGGAGC | -0.167
ATTGCACA | 0.141
CGCACGAC | -0.0895
CGTCACAG | 0.126
ATAAGCGA | 0.122
ACGCACAC | 0.0549
AGTGTGAT | 0.15
CCGACAAC | -0.068
AATGAGAA | 0.111
CCTGTACC | -0.192
ATTTCGTC | 0.198
TATAACAA | 0.265
CCCGAGGG | -0.181
GTGAAGTA | -0.0249
AGGTGGGC | -0.169
AACCGTTC | 0.0457
ACCCACCT | -0.176
AGTCGAAT | -0.119
CCTGTCAC | -0.119
CCTCCACA | 0.0441
CAAGTTGC | 0.124
GAACAGGA | 0.0208
AGTGATAC | 0.0972
ATGTCTAA | 0.113
GTTTAACA | -0.0384

Sequence | PBM E-score
AGTACCTC | -0.158
GTGCCTTA | 0.0418
AAGTCACA | 0.0519
CAAACGCC | 0.046
CAGACGAC | -0.13
ACGTTAGA | 0.199
ATAACCAC | 0.112
GTCACGAC | 0.0514
CCCAACAG | -0.193
ATTGGAGC | 0.217
AAATCAGT | 0.0169
CGCCGTTA | -0.00062
GGTTCCCA | -0.0281
GGAATGAC | -0.0484
GATATCGA | 0.0754
ATCCGCCA | -0.1
GAACCAAC | 0.00249
GATCTCCA | -0.0538
ACTCTTAG | -0.259
AAGAATCT | -0.122
GGGCCAGA | -0.307
GACACCCA | -0.184
ACGTTCAT | -0.135
GGCTTCCC | -0.127
AGGTCGAT | 0.167

Sequence | PBM E-score
GATACGAC | 0.0825
TCTCCTAA | 0.0355
AAGCCTCA | -0.231
ACAACTAG | -0.109
GGTTCCAA | 0.09
AACAGCGC | -0.061
AATGCTAT | 0.148
GGGCTAGA | -0.105
AAACCGTC | -0.101
ACGTAAAC | -0.0817
TACTTCGA | 0.138
TCGAAAAA | 0.237
AGGCATGA | -0.135
ACTCCTCC | -0.0812
CGATTTGA | 0.0627
GGGTGGAC | -0.169
GACCCCGA | -0.0931
AGCTGCAA | -0.193
ACCGACTA | -0.308
GGAGCTTA | -0.0908
GGGCCTCA | -0.257
ACTTTATC | 0.169
GAACTCCC | -0.104
AATAGGCT | 0.0204
AAGACCCG | -0.121

Sequence | PBM E-score
GGGATAAC | 0.0059
CCGAGCGA | -0.0663
CAAATGCC | -0.0918
GTCGGCAA | -0.0657
CCTGTTGC | -0.00854
GGGTCTCA | -0.138
CAGCGCCC | -0.264
CTAATTGC | 0.0288
CCAAGATC | -0.127
ATCTTCCC | -0.0179
AAATGTCT | 0.134
AATGAGCC | -0.238
GTCAATCA | -0.0169
CGCGTCCG | -0.0235
ACGATGAC | -0.122
GCCCGACA | 0.0931
AACCGATG | -0.132
CATGCAGC | -0.153
AGAGAGGG | -0.347
GGAGTGCC | -0.202
CATAAGAG | -0.071
AGAAGCTC | -0.193
AACGGTGG | -0.105
ACCGGGCA | -0.164
ATGCCTCG | 0.0974

Sequence | PBM E-score
AAAGCTGC | 0.018
CGCTCCAA | -0.141
ACGTTTCC | -0.102
CGTCCGCA | -0.18
GATGATTA | 0.0319
CCCCGAGA | -0.148
AACACTTG | 0.0146
GCCTACAA | 0.00486
TCGAGGAA | 0.025
GTTCTAAA | 0.0261
CGGAGTTA | -0.0186
ACTGCACG | -0.119
CGCTCGTC | -0.111
AATAACGC | -0.0289
GCTTATCA | 0.0728
ACAACATC | 0.0853
TATATTGA | 0.228
ATCCGATC | 0.102
CTAAAAGA | -0.0682
